Source: the supplement of paper PMC10849652
The other results are listed elsewhere or left out.

Amino acid sequences for entries named in this document (tags omitted). A change or cut given only in a name is not applied to a line headed by its entry.
UniProt Q8N6N6: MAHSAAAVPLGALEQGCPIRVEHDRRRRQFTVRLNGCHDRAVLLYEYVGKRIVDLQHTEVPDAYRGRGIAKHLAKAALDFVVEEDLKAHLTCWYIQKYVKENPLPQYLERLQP
UniProt Q6ZVX7: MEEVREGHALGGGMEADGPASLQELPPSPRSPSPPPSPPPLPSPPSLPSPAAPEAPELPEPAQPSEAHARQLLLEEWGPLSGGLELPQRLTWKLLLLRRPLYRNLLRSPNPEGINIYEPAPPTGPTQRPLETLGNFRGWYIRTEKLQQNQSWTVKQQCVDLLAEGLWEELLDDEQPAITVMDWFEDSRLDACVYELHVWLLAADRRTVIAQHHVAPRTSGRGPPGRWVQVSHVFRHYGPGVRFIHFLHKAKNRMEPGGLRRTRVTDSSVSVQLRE
UniProt Q6ZNJ1: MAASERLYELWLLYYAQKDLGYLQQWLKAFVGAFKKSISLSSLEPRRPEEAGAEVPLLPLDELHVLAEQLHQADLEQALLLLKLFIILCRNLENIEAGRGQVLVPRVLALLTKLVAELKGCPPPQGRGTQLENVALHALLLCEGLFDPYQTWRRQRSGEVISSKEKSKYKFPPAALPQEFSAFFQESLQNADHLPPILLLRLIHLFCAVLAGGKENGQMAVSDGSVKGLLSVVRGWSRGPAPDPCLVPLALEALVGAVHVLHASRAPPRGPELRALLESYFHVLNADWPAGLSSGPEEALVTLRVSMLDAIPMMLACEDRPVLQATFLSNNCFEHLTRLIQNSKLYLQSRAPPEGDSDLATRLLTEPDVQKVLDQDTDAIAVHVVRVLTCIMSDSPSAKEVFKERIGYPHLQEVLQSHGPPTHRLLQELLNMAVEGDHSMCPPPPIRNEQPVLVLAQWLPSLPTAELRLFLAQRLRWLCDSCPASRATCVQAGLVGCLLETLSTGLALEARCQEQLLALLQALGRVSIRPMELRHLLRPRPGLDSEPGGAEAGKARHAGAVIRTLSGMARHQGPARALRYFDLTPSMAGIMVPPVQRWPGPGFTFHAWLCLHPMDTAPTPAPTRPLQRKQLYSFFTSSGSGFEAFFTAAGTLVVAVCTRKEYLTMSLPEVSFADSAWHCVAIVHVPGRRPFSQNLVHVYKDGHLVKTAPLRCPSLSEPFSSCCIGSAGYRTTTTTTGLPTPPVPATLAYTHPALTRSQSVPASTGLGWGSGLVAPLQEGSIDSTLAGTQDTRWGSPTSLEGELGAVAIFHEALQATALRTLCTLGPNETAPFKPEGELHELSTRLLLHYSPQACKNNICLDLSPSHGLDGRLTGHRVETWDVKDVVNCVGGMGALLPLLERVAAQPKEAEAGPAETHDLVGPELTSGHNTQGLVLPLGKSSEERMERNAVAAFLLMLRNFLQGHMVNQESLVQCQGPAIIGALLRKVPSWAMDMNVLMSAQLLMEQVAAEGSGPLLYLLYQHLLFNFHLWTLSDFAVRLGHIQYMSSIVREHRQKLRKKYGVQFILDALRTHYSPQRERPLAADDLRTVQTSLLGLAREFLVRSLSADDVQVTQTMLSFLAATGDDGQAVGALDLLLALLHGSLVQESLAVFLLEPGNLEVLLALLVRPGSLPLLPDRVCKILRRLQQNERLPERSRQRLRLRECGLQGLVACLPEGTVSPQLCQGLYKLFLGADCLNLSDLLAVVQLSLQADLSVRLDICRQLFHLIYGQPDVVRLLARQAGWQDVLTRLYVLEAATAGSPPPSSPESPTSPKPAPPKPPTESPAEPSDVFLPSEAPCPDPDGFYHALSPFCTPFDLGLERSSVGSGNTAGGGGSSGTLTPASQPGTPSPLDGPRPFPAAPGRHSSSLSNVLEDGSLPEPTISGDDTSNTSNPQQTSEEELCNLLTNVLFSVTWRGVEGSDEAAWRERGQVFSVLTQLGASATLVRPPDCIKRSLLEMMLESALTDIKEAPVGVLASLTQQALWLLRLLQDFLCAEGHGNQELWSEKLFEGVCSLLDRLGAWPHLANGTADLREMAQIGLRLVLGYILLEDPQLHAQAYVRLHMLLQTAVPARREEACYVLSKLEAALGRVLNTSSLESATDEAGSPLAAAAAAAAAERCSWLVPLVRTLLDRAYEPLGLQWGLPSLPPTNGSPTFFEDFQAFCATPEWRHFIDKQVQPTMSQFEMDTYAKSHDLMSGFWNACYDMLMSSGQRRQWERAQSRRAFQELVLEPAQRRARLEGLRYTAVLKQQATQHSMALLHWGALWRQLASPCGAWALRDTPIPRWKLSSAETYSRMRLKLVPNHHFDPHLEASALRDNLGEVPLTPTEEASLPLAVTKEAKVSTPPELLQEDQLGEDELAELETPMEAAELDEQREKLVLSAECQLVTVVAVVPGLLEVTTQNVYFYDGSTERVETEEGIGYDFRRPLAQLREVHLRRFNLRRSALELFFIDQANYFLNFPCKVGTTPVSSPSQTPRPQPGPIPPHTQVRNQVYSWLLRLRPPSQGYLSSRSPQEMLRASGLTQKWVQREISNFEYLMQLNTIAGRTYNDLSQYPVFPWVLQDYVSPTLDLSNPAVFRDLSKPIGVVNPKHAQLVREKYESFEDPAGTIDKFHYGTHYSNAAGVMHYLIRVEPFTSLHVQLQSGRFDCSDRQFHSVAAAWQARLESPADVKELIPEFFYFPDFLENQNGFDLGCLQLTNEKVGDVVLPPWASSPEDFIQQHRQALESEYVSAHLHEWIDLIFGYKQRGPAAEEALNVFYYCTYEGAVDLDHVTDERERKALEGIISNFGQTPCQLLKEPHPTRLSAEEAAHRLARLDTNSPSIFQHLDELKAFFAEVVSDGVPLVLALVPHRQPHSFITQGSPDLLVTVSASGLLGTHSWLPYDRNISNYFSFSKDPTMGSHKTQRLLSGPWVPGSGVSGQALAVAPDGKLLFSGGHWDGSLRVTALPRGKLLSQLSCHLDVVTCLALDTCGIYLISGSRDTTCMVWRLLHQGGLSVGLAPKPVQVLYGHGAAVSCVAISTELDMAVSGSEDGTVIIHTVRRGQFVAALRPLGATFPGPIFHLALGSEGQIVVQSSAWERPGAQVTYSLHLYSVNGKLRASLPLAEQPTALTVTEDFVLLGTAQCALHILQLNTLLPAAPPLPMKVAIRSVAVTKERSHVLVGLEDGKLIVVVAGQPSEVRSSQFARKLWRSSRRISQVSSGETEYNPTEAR
UniProt Q92597: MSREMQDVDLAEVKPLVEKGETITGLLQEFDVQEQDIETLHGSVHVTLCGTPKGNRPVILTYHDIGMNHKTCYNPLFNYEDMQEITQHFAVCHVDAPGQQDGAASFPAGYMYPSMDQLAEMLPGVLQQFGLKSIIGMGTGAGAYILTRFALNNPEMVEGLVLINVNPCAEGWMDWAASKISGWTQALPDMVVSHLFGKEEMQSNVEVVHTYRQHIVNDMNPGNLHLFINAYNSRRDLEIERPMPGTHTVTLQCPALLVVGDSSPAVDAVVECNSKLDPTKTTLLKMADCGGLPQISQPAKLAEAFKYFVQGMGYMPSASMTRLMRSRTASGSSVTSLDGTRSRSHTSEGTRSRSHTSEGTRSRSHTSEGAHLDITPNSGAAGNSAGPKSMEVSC
UniProt Q8NEY1: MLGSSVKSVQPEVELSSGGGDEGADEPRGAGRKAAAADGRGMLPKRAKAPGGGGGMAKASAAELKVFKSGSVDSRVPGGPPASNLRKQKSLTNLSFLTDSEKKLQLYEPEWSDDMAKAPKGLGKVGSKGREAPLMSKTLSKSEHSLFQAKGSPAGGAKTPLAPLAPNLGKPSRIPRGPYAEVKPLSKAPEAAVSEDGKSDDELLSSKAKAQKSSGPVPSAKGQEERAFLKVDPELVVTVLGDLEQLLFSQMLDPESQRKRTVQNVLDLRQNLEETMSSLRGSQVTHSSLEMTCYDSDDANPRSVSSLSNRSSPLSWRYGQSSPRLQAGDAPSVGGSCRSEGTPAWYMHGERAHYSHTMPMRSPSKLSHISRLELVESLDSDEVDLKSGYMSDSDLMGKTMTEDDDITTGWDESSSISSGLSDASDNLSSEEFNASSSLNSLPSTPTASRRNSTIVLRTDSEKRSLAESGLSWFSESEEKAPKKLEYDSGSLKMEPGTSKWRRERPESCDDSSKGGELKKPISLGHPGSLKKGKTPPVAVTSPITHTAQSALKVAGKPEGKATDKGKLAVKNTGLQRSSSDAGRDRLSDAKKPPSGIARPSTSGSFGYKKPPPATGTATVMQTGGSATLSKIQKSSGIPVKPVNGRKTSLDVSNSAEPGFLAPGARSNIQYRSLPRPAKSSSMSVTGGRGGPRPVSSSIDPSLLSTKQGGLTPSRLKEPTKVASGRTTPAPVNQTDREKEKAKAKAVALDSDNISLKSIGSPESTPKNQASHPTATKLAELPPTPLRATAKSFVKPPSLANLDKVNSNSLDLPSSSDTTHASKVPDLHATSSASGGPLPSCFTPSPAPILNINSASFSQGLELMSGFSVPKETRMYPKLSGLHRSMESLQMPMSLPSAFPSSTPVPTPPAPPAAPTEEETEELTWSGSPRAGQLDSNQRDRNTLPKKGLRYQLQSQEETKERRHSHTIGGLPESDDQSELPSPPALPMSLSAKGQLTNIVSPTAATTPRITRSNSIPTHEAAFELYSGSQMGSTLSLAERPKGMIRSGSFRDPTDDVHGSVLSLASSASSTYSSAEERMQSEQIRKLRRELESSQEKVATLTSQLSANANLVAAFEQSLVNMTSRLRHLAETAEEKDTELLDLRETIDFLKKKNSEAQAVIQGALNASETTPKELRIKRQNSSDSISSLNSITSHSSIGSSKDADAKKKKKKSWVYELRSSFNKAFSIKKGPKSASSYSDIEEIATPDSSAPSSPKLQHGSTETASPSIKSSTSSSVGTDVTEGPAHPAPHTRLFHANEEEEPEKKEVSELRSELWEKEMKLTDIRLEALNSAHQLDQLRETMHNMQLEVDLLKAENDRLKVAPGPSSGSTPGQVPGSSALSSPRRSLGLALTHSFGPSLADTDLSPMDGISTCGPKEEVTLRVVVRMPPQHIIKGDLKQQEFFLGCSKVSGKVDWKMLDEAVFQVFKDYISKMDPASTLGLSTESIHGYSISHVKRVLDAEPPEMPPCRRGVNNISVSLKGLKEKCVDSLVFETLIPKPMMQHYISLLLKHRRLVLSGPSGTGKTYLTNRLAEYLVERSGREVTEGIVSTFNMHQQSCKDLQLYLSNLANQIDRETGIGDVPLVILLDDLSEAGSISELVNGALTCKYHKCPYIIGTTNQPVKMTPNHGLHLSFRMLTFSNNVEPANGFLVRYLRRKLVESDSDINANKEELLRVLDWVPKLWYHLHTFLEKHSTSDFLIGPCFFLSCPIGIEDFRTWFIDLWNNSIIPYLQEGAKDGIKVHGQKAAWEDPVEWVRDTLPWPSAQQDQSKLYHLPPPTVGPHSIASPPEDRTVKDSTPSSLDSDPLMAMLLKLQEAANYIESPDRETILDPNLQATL
UniProt P56181: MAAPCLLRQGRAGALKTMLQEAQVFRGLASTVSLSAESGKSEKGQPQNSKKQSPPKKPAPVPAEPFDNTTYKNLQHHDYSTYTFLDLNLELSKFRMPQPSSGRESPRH
UniProt Q4G0T1: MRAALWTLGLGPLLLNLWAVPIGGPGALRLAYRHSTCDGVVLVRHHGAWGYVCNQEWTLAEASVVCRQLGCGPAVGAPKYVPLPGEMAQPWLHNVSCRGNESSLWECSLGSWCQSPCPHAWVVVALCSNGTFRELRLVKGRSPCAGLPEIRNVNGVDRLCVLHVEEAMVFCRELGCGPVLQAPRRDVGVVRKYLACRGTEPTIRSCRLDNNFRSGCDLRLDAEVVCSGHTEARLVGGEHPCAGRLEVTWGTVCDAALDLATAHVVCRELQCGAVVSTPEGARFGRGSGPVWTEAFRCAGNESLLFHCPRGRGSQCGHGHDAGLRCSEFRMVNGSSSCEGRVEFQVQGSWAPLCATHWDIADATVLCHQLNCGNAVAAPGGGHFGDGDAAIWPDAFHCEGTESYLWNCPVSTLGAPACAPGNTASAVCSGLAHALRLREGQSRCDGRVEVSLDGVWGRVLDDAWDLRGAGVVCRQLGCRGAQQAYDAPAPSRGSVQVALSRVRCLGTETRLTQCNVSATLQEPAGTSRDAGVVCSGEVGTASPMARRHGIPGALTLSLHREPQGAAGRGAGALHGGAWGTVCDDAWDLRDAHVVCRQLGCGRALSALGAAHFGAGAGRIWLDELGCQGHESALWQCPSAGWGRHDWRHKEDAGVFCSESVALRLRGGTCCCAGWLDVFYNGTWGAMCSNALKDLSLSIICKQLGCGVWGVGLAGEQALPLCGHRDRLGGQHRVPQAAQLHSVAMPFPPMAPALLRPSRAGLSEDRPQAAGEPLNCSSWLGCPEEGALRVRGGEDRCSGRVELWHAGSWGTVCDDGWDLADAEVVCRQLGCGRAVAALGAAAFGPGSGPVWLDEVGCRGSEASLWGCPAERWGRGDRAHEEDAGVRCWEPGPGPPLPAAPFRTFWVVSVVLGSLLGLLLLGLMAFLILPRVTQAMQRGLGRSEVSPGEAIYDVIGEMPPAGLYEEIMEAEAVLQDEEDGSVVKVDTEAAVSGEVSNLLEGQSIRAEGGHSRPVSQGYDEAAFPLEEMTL

Tests used:
Experiment in all cases: log2 fold change, soluble protein after heating vs DMSO (PISA); higher = thermal stabilisation; K562 cells, 10 uM, 30 min; active = over 0.2 and 3.5 SD of the protein, either way, in both replicates (recomputed)
bafetinib = compound: Cc1ccc(NC(=O)c2ccc(CN3CC[C@H](N(C)C)C3)c(C(F)(F)F)c2)cc1Nc1nccc(-c2cncnc2)n1 [bafetinib]
How it was run: (§1)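 For each measurement, 10 μM compound was applied for 30 min to K562 cells at 2×10^6 cells/mL. Aliquots were heated for 3 min across 48°C-58°C, pooled, and extracted in PBS with 0.5% NP-40 at 4°C; the supernatant after 21,000xg for 90 min was soluble protein. This was quantified by TMTpro 16plex LC-MS/MS with channel sums equalised, and thermal stability was reported relative to control samples from duplicates, on a log2 fold-change scale.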

[1] = compound: Cc1cccc(CC(=O)N2CCc3c2ccc(-c2cn(C)c4ncnc(N)c24)c3F)n1
How it was run: as §1

nilotinib = compound: Cc1cn(-c2cc(NC(=O)c3ccc(C)c(Nc4nccc(-c5cccnc5)n4)c3)cc(C(F)(F)F)c2)cn1 [nilotinib]
How it was run: as §1

[2] = compound: Cc1nc(Nc2n[nH]c3c2CN(C(=O)N[C@H](CN(C)C)c2ccccc2)C3(C)C)c2sccc2n1
How it was run: as §1

[3] = compound: Cc1ncc(-c2ccnc(Nc3ccc(S(C)(=O)=O)cc3)n2)n1C(C)C
How it was run: as §1

[4] = compound: Cn1cc(-c2ccc3c(c2)CCN3C(=O)Cc2cccc(C(F)(F)F)c2)c2c(N)ncnc21
How it was run: as §1

[5] = compound: Cn1cc(-c2ccc3nnc(C(F)(F)c4ccc5ncccc5c4)n3n2)cn1
How it was run: as §1

tipifarnib = compound: Cn1cncc1[C@@](N)(c1ccc(Cl)cc1)c1ccc2c(c1)c(-c1cccc(Cl)c1)cc(=O)n2C [tipifarnib]
How it was run: as §1

[6] = compound: NC(=O)Nc1cc(-c2cccc(F)c2)sc1C(=O)N[C@H]1CCCNC1
How it was run: as §1

[7] = compound: NCC(=O)Nc1ccc(-n2nc(C(F)(F)F)cc2-c2ccc3c(ccc4ccccc43)c2)cc1
How it was run: as §1

entinostat = compound: Nc1ccccc1NC(=O)c1ccc(CNC(=O)OCc2cccnc2)cc1 [entinostat]
How it was run: as §1

vorinostat = compound: O=C(CCCCCCC(=O)Nc1ccccc1)NO [vorinostat]
How it was run: as §1

citarinostat = compound: O=C(CCCCCCNC(=O)c1cnc(N(c2ccccc2)c2ccccc2Cl)nc1)NO [citarinostat]
How it was run: as §1

[8] = compound: O=C1NC(=O)C(c2cnc3ccccn23)=C1c1cn2c3c(cc(F)cc13)CN(C(=O)N1CCCCC1)CC2
How it was run: as §1

[9] = compound: c1cc(OCCN2CCCCC2)cc(-c2n[nH]c3ccc(-c4nnc[nH]4)cc23)c1
How it was run: as §1

mubritinib = compound: FC(F)(F)c1ccc(/C=C/c2nc(COc3ccc(CCCCn4ccnn4)cc3)co2)cc1 [mubritinib]
How it was run: as §1

[10] = compound: NC(=O)c1cnc(N[C@@H]2CCCC[C@@H]2N)nc1Nc1cccc(-n2nccn2)c1
How it was run: as §1

[11] = compound: NC1(c2ccc(-c3nc4ccn5c(=O)[nH]nc5c4cc3-c3ccccc3)cc2)CCC1
How it was run: as §1

silmitasertib = compound: O=C(O)c1ccc2c(c1)nc(Nc1cccc(Cl)c1)c1ccncc12 [silmitasertib]
How it was run: as §1

dasatinib = compound: Cc1nc(Nc2ncc(C(=O)Nc3c(C)cccc3Cl)s2)cc(N2CCN(CCO)CC2)n1 [dasatinib]
How it was run: as §1

Measured: log2 fold change

NCOA3 (UniProt Q9Y6Q9)
inactive: bafetinib -0.129 | [1] 0.035 | nilotinib 0.049 | [2] 0.075 | [3] -0.213 | [4] 0.013 | [5] 0.177 | tipifarnib 0.122 | [6] -0.072 | [7] -0.008 | entinostat 0.129 | vorinostat -0.035 | citarinostat -0.249 | [8] 0.208 | [9] 0.224

NAA40 (UniProt Q86UY6)
inactive: [1] -0.084 | [4] -0.22 | [5] -0.158 | [7] 0.004 | vorinostat -0.256 | citarinostat -0.151 | [8] 0.245 | [9] -0.058

NATD1 (UniProt Q8N6N6)
inactive: nilotinib -0.084 | [2] -0.027 | [3] 0.13 | tipifarnib 0.097 | mubritinib -0.169 | [10] -0.119 | [11] -0.045 | silmitasertib 0.173

NDST2 (UniProt P52849)
inactive: bafetinib -0.019 | nilotinib 0.104 | [2] 0.101 | [3] -0.027 | [5] -0.172 | mubritinib 0.022 | [6] -0.064 | [10] 0.06 | [11] 0.105 | [7] 0.066 | entinostat 0.136 | silmitasertib 0.03 | [8] -0.024

NA, A0A1W2PSA9
inactive: [1] 0.022 | dasatinib 0.289 | [4] 0.218 | [5] -0.118 | [10] 0.004 | vorinostat -0.364

MYOF (UniProt Q9NZM1)
inactive: dasatinib -0.091 | [10] -0.19

NDRG2 (UniProt G3V392)
inactive: bafetinib -0.131 | tipifarnib 0.099 | mubritinib -0.418 | [6] 0.095 | [11] 0.129 | entinostat -0.035 | silmitasertib -0.056 | [8] -0.06

NACA4P (UniProt Q9BZK3)
inactive: bafetinib 0.048 | nilotinib 0.094 | [2] 0.082 | dasatinib -0.042 | [3] 0 | [4] -0.083 | [5] -0.111 | mubritinib 0.046 | [6] 0.19 | [10] 0.018 | [11] -0.057 | [7] -0.032 | entinostat 0.03 | citarinostat -0.025 | silmitasertib 0.028 | [8] 0.116 | [9] 0.064

NCOA4 isoform 4 (UniProt Q13772)
inactive: [1] 0.006 | [4] -0.029 | [5] -0.032 | vorinostat 0.342

NCCRP1 (UniProt Q6ZVX7)
inactive: dasatinib -0.542 | mubritinib -0.321 | [10] 0.279 | [11] 0.132 | [7] -0.346 | citarinostat -0.009 | silmitasertib 0.01 | [8] -0.58 | [9] 1.03

NBEAL2 (UniProt Q6ZNJ1)
inactive: [1] -0.001 | [4] 0.054 | [5] -0.247 | mubritinib 0.05 | [11] -0.003 | vorinostat 0.064 | citarinostat -0.15 | silmitasertib -0.034 | [9] -0.006

NDRG1 (UniProt Q92597)
inactive: tipifarnib -0.193

NDUFV1 (UniProt E9PJL9)
inactive: bafetinib 0.015 | nilotinib -0.021 | [2] 0.092 | [3] -0.049 | tipifarnib 0.149 | mubritinib 0.083 | [6] -0.032 | [10] -0.23 | [11] -0.07 | [7] -0.048 | entinostat -0.123 | silmitasertib 0.05

NAAA (UniProt Q02083)
inactive: [1] -0.013 | nilotinib -0.028 | [2] 0.04 | [3] 0.081 | [4] -0.081 | [5] -0.093 | tipifarnib 0.011 | mubritinib 0.01 | [6] -0.041 | [11] -0.457 | entinostat 0.088 | vorinostat -0.12 | citarinostat 0.233 | silmitasertib -0.262 | [9] -0.218

NDUFA7 (UniProt M0R0N0)
inactive: bafetinib -0.052 | [6] -0.307 | [7] -0.344 | entinostat -0.063

NABP2 (UniProt Q9BQ15)
inactive: dasatinib -0.077

NAIP (UniProt Q13075)
inactive: [5] 0.301 | tipifarnib 0.212

NCOA1 (UniProt Q15788)
inactive: bafetinib -0.118 | nilotinib -0.159 | [2] -0.08 | dasatinib -0.096 | [3] -0.072 | [4] 0.135 | [5] 0.058 | mubritinib 0.183 | [10] 0.001 | [11] -0.041 | [7] -0.155 | citarinostat -0.187 | silmitasertib 0.054 | [8] -0.058 | [9] 0.038

NCOA5 (UniProt Q9HCD5)
active: [2] -0.92
inactive: [1] -0.04 | nilotinib -0.428 | dasatinib -0.043 | [3] 0.218 | [5] -0.203 | tipifarnib 0.164 | [6] -0.101 | entinostat -0.011 | vorinostat 0.023

NEK1 isoform 3 (UniProt Q96PY6)
inactive: dasatinib -0.215 | [4] -0.107 | [5] -0.112 | [10] -0.015 | [7] -0.171

NAV1 (UniProt Q8NEY1)
inactive: [1] 0.034 | nilotinib 0.009 | [2] -0.236 | dasatinib -0.115 | [3] 0.065 | [4] -0.08 | [5] -0.096 | tipifarnib 0.13 | mubritinib -0.239 | [6] -0.035 | [10] 0.192 | [11] -0.119 | [7] -0.061 | entinostat -0.094 | vorinostat -0.085 | citarinostat 0.03 | silmitasertib 0.029 | [8] 0.129 | [9] -0.041

MYSM1 (UniProt Q5VVJ2)
inactive: bafetinib -0.138 | [5] 0.18 | [6] -0.205 | entinostat 0.237 | citarinostat 0.564 | [9] 0.174

NCKAP5L (UniProt Q9HCH0)
inactive: dasatinib -0.069 | [5] 0.092 | tipifarnib -0.21 | mubritinib 0.25 | [11] 0.064 | [7] -0.028 | silmitasertib -0.039

NDUFV3 (UniProt P56181)
inactive: bafetinib 0.042 | nilotinib -0.01 | [2] 0.031 | dasatinib -0.09 | [3] -0.059 | [4] 0.137 | [5] 0.04 | tipifarnib 0.042 | mubritinib 0.049 | [6] 0.053 | [10] 0.036 | [11] 0.019 | [7] -0.137 | entinostat 0.012 | citarinostat 0.059 | silmitasertib -0.013 | [8] 0.021 | [9] -0.001

Quoted at random: 2 entries already listed
NCKAP5L (UniProt Q9HCH0)
inactive: dasatinib -0.069 | [5] 0.092 | tipifarnib -0.21 | mubritinib 0.25 | [11] 0.064 | [7] -0.028 | silmitasertib -0.039

NACA4P (UniProt Q9BZK3)
inactive: bafetinib 0.048 | nilotinib 0.094 | [2] 0.082 | dasatinib -0.042 | [3] 0 | [4] -0.083 | [5] -0.111 | mubritinib 0.046 | [6] 0.19 | [10] 0.018 | [11] -0.057 | [7] -0.032 | entinostat 0.03 | citarinostat -0.025 | silmitasertib 0.028 | [8] 0.116 | [9] 0.064

Remaining list, next part:

NCAPH2 isoform 4 (UniProt Q6IBW4)
inactive: nilotinib -0.076 | [2] -0.108 | [3] -0.145 | mubritinib -0.001 | [10] 0.099 | [11] 0.216 | citarinostat 0.118 | silmitasertib 0.067 | [8] -0.074 | [9] -0.033

NDC80 (UniProt O14777)
inactive: [1] -0.05 | nilotinib -0.05 | [2] -0.223 | dasatinib -0.074 | [3] 0.164 | [4] -0.129 | [5] -0.119 | tipifarnib -0.017 | mubritinib -0.054 | [6] 0.016 | [10] -0.117 | [11] -0.121 | [7] 0.01 | entinostat 0.036 | vorinostat 0.049 | citarinostat -0.015 | silmitasertib 0.184 | [8] 0.359 | [9] -0.057

NAP1L4 (UniProt C9J6D1)
inactive: dasatinib 0.085 | [6] 0.035 | [10] 0.078 | entinostat 0.093

NA (UniProt J3KR12)
inactive: bafetinib 0.338 | nilotinib 0.208 | [2] -0.221 | [3] -0.196 | [5] -0.112 | mubritinib 0.16 | [11] -0.292 | silmitasertib -0.108 | [8] 0.427

NASP isoform 2 (UniProt P49321)
inactive: mubritinib -0.347 | [11] 0.24 | silmitasertib -0.475

NCKIPSD (UniProt Q9NZQ3)
inactive: [1] 0.04 | [5] 0.084 | tipifarnib -0.025 | [10] 0.114 | [7] 0.02 | vorinostat -0.148

NAT14 (UniProt Q8WUY8)
inactive: bafetinib -0.071 | nilotinib 0.003 | [2] -0.052 | dasatinib -0.066 | [3] 0 | [4] -0.06 | [5] -0.209 | tipifarnib 0.054 | mubritinib 0.118 | [6] 0.038 | [10] -0.135 | [11] -0.108 | [7] -0.33 | entinostat -0.033 | citarinostat 0.04 | silmitasertib 0 | [8] -0.037 | [9] -0.108

NDUFC1 (UniProt O43677)
inactive: [4] 0.009 | [10] -0.011 | citarinostat 0.001 | [8] -0.076 | [9] -0.047

NDFIP2 (UniProt Q9NV92)
inactive: [5] -0.106 | tipifarnib 0.348 | mubritinib -0.231 | [6] -0.284 | [11] 0.101 | entinostat -0.354 | silmitasertib 0.049

NCK1 (UniProt P16333)
inactive: bafetinib 0.062 | nilotinib -0.069 | [2] -0.421 | dasatinib -0.138 | [3] 0.046 | [4] -0.086 | [5] -0.044 | tipifarnib 0.008 | mubritinib -0.058 | [6] -0.118 | [10] -0.247 | [11] -0.056 | [7] -0.112 | entinostat 0.085 | silmitasertib 0.077 | [8] -0.194

NA isoform 3 (UniProt Q4G0T1)
inactive: bafetinib -0.198 | nilotinib -0.021 | [2] -0.009 | dasatinib -0.093 | [3] 0.01 | [4] -0.065 | [5] 0.059 | tipifarnib -0.066 | mubritinib -0.066 | [6] -0.114 | [10] -0.207 | [11] 0.015 | [7] -0.02 | entinostat 0.01 | silmitasertib 0.037

NAMPT (UniProt C9JF35)
inactive: bafetinib -0.029 | nilotinib -0.237 | [2] -0.263 | dasatinib -0.026 | [3] -0.051 | [4] 0.037 | [5] 0.139 | tipifarnib 0.088 | mubritinib 0.13 | [6] -0.094 | [11] -0.2 | entinostat -0.082 | citarinostat 0.033 | silmitasertib 0.06 | [8] 0.081 | [9] -0.053
